Laboratory results: the supplement of paper PMC10849652
The other results are listed elsewhere or left out.

Amino acid sequences for entries named in this document (tags omitted). A change or cut given only in a name is not applied to a line headed by its entry.
UniProt P31949: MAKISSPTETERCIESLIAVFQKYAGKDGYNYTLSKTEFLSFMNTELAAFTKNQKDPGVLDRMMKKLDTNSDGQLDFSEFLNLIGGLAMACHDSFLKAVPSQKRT
UniProt Q96EU6: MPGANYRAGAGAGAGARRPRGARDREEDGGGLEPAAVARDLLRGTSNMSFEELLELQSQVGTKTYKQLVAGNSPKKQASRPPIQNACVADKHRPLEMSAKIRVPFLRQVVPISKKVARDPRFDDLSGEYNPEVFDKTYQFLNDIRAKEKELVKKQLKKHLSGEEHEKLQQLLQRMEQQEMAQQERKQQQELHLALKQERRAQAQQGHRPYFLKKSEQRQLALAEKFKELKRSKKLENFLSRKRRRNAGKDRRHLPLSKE
UniProt P67812: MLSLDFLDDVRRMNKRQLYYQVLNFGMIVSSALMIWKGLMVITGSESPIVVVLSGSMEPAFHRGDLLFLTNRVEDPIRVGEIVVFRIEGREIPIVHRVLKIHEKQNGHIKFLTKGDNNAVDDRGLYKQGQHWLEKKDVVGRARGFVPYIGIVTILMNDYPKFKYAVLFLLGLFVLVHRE
UniProt Q9UPN6: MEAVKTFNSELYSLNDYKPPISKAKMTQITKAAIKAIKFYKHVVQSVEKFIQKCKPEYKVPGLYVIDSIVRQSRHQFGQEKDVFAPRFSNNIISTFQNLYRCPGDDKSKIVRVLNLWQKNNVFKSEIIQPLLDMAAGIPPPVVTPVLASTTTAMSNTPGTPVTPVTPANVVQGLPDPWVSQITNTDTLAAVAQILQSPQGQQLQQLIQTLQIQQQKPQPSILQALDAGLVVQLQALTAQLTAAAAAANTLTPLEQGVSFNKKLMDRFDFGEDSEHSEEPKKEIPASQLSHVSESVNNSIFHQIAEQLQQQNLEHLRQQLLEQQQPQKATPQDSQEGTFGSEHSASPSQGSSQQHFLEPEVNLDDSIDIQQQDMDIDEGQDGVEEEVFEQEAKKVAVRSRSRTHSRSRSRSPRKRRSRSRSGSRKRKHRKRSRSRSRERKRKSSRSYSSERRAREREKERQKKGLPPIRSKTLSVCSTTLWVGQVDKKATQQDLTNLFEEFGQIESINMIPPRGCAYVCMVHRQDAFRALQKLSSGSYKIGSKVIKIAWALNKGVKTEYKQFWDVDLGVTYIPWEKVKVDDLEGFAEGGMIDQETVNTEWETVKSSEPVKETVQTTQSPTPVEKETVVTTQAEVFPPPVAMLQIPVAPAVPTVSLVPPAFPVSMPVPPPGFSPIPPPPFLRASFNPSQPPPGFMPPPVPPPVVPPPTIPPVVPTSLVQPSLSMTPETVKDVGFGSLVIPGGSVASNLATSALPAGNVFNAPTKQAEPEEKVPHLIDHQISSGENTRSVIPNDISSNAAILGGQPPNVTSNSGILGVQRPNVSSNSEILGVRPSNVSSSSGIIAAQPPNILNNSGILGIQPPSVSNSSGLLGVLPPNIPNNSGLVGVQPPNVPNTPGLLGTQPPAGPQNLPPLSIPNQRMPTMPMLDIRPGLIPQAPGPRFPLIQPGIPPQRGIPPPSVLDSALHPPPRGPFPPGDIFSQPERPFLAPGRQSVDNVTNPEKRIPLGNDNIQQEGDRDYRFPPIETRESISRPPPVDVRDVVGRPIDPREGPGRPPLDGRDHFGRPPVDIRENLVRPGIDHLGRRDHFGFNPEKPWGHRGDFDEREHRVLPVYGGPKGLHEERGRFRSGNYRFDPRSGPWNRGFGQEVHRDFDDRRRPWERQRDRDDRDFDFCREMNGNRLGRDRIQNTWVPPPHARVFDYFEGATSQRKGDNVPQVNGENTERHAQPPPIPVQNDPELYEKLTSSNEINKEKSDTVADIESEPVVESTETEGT
UniProt Q14108: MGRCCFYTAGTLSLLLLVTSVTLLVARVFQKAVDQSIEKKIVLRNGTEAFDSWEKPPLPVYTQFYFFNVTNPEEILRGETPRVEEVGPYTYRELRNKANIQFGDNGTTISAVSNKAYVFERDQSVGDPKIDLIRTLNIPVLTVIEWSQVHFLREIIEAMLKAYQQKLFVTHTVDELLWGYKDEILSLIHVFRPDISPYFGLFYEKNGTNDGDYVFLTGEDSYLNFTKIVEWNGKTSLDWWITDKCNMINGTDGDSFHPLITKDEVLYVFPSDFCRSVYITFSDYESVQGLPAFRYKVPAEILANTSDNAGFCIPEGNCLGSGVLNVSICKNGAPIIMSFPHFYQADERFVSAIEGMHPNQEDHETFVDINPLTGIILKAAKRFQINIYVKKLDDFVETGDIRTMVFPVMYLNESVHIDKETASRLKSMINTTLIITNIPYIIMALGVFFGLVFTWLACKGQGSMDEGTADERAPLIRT
UniProt Q9Y6Y8: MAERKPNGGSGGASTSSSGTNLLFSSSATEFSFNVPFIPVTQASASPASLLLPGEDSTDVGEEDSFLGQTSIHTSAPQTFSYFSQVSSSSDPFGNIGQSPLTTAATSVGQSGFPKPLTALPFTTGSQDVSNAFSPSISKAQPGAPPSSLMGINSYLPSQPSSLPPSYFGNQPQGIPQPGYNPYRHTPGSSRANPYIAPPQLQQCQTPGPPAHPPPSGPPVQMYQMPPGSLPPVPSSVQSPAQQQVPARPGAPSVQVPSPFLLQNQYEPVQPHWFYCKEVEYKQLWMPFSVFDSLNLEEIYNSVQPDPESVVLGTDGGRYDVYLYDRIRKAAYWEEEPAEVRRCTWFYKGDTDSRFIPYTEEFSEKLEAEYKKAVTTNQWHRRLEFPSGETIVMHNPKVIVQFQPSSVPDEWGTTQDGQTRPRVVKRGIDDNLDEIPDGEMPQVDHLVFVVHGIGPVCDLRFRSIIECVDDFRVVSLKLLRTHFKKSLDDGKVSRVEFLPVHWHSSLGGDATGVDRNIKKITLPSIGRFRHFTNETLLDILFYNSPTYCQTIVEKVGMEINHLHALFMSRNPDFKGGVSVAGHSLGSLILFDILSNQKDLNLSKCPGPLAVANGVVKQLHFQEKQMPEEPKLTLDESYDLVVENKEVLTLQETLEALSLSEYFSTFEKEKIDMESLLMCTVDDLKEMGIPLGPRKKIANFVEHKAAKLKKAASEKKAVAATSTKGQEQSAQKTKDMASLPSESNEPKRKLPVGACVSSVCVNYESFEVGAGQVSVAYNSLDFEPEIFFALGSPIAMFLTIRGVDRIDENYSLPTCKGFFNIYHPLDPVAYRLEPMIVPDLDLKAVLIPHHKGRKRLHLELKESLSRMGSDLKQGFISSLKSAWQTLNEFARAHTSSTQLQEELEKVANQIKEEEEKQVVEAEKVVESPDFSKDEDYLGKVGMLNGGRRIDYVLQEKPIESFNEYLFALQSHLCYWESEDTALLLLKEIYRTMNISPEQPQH
UniProt Q6P3W7: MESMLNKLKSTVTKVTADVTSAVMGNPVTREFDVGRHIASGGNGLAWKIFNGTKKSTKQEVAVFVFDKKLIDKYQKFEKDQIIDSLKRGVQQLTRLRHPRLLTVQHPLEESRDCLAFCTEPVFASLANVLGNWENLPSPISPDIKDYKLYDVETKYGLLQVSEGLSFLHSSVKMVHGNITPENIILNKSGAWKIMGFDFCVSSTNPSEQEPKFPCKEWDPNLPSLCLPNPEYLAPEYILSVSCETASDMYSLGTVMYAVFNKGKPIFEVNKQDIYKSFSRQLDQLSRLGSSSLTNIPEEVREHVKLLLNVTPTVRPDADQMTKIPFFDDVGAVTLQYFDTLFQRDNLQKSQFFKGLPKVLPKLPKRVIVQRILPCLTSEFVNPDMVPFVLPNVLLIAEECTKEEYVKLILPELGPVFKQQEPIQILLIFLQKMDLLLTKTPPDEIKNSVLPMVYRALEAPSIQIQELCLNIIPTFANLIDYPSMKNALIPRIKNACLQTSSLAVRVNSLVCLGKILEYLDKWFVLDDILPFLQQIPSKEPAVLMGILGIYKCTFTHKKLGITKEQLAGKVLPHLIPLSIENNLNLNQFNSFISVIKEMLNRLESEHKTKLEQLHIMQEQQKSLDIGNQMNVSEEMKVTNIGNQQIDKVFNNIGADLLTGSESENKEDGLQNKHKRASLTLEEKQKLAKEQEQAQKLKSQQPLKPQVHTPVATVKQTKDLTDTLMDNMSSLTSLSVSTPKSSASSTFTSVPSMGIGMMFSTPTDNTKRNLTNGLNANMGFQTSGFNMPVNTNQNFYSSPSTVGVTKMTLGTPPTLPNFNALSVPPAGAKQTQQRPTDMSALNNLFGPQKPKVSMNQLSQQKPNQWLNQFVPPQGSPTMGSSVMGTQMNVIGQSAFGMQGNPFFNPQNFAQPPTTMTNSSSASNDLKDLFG
UniProt Q9H446: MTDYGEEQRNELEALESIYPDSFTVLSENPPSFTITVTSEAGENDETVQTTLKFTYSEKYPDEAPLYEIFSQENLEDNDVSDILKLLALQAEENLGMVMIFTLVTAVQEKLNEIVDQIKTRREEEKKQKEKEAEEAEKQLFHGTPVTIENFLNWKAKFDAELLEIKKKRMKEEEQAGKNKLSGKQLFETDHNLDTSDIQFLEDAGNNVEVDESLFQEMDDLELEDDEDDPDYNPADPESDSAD
UniProt Q8WWV3: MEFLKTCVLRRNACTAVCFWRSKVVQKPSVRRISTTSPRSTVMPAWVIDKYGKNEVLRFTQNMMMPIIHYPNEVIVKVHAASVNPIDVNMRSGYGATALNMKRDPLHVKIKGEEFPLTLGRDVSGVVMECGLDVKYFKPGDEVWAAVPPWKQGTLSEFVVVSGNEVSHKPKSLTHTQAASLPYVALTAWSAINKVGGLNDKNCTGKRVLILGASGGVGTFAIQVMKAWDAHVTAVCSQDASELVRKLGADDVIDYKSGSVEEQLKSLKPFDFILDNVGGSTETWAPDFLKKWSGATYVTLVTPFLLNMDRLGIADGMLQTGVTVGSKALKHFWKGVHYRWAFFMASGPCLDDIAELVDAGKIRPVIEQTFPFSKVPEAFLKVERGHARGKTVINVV
UniProt Q96BU1: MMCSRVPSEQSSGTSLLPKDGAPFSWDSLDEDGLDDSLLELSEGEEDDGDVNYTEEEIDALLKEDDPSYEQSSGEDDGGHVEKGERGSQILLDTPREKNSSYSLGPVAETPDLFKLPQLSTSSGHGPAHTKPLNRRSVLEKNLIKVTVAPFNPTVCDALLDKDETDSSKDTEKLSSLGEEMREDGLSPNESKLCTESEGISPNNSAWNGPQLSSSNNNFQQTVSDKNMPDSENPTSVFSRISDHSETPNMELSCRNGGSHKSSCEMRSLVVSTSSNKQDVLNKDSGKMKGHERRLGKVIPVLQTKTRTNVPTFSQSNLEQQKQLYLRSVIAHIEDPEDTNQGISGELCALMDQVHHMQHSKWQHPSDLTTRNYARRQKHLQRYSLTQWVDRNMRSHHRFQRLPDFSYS
UniProt Q6NW29: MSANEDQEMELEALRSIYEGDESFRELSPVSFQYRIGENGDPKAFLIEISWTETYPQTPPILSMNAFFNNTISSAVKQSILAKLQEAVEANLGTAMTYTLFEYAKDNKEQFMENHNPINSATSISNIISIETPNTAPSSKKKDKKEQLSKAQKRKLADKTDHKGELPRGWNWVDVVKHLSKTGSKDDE
UniProt Q9Y3I0: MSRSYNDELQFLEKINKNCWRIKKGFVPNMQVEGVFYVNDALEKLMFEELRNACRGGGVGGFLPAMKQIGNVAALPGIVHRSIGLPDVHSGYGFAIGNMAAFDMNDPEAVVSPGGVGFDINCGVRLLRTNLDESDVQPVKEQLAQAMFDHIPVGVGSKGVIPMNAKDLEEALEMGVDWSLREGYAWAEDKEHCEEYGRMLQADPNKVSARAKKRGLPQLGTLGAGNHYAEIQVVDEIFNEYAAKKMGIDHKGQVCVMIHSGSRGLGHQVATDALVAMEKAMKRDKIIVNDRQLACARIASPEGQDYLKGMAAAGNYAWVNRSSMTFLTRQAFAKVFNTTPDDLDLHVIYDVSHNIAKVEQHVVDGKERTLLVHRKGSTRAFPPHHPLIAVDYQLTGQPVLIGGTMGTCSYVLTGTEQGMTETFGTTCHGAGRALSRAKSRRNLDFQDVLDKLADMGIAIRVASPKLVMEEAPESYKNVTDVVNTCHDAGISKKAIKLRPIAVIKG
UniProt Q99643: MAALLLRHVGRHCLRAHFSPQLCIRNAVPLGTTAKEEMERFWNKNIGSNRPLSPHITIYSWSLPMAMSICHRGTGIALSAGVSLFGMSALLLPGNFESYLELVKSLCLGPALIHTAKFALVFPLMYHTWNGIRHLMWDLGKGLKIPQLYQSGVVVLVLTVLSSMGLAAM
UniProt Q9NRP4: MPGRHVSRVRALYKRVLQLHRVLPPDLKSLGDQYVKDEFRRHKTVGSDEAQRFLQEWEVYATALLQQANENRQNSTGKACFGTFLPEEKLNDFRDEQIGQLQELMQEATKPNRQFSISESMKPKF
UniProt Q9Y6B6: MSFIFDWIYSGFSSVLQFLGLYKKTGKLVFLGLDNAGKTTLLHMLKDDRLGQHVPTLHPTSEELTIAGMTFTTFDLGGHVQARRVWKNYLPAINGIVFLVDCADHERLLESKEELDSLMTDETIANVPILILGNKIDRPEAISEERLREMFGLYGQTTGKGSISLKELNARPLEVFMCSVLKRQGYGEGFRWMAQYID

The targets below were run with c1cc(OCCN2CCCCC2)cc(-c2n[nH]c3ccc(-c4nnc[nH]4)cc23)c1 (assay: log2 fold change, soluble protein after heating vs DMSO (PISA); higher = thermal stabilisation; K562 cells, 10 uM, 30 min; active = over 0.2 and 3.5 SD of the protein, either way, in both replicates (recomputed)).
Procedure, shortened: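 For each measurement, 10 μM compound was applied for 30 min to K562 cells at 2×10^6 cells/mL. Aliquots were heated for 3 min across 48°C-58°C, pooled, and extracted in PBS with 0.5% NP-40 at 4°C; the supernatant after 21,000xg for 90 min was soluble protein. This was quantified by TMTpro 16plex LC-MS/MS with channel sums equalised, and thermal stability was reported relative to control samples from duplicates, on a log2 fold-change scale.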

Target | log2 fold change
S100A11 (UniProt P31949) | inactive: -0.05
SASH1 (UniProt O94885) | inactive: -0.218
RRP36 (UniProt Q96EU6) | inactive: -0.118
SEC11A isoform 3 (UniProt P67812) | inactive: -0.046
SCAF8 isoform 2 (UniProt Q9UPN6) | inactive: -0.093
RSBN1 (UniProt Q5VWQ0) | inactive: -0.123
SAP18 isoform 2 (UniProt O00422) | inactive: -0.014
SCARB2 (UniProt Q14108) | inactive: 0.116
RSRC1 (UniProt Q96IZ7) | inactive: -0.123
SEC23IP (UniProt Q9Y6Y8) | inactive: -0.063
SCYL2 (UniProt Q6P3W7) | inactive: -0.024
RWDD1 (UniProt Q9H446) | inactive: 0.018
RTN4IP1 (UniProt Q8WWV3) | inactive: -0.198
SDHAF2 (UniProt Q9NX18) | inactive: -0.015
SCFD2 (UniProt Q8WU76) | inactive: -0.197
S100PBP (UniProt Q96BU1) | inactive: 0.021
RWDD4 (UniProt Q6NW29) | inactive: -0.022
SAFB isoform 3 (UniProt Q15424) | inactive: -0.035
RTCB (UniProt Q9Y3I0) | inactive: -0.007
SDHC (UniProt Q99643) | inactive: -0.062
SDHAF3 (UniProt Q9NRP4) | inactive: -0.099
SAR1B (UniProt Q9Y6B6) | inactive: -0.033

Exported tab-delimited: entries from further up.
Target	log2 fold change
SEC11A isoform 3 (UniProt P67812)	inactive: -0.046
SCAF8 isoform 2 (UniProt Q9UPN6)	inactive: -0.093
RSBN1 (UniProt Q5VWQ0)	inactive: -0.123
SAP18 isoform 2 (UniProt O00422)	inactive: -0.014
